PMC12819141, “RNase MRP subunit composition and role in 40S ribosome biogenesis” (Nature Structural & Molecular Biology, 2025)
No constants are given. Whether binding was seen depends on the method and setting. In cells and extracts the contact can be indirect. Here binding means that the protein was enriched with, or labelled near, the bait; the list need not be complete. Sequences can lack the tags named with a protein.

Tests used:
Assay in all cases: affinity purification with mass spectrometry; label-free IP–MS; C-terminally GFP-tagged bait from HeLa lysate on Protein A beads coupled to rabbit anti-GFP antibody, 2 h at 4 °C; polysome lysis buffer (20 mM Hepes pH 7.5, 100 mM KCl, 5 mM MgCl2, 1% Triton X-100) with 1% CHAPS; compared with control GFP
[1] = molecular target: T1, NEPRO–GFP (human) (UniProt Q6NW34)
T1 sequence: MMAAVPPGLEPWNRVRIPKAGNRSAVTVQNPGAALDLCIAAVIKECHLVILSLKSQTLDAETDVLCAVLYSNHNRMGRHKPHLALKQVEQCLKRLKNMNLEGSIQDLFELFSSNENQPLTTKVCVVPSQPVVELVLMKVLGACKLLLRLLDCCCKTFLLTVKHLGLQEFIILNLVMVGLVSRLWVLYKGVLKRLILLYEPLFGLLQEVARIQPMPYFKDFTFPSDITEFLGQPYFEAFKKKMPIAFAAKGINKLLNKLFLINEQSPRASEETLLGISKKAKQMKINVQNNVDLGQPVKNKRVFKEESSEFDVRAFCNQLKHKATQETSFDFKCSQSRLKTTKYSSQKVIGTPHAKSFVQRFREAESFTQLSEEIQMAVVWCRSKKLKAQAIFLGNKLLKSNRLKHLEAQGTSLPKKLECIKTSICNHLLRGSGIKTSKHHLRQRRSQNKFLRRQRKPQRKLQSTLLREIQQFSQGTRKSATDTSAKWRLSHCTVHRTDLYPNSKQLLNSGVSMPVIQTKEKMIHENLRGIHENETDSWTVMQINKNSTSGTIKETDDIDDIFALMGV

[2] = molecular target: T2, RPP21–GFP (human) (UniProt Q9H633)
T2 sequence: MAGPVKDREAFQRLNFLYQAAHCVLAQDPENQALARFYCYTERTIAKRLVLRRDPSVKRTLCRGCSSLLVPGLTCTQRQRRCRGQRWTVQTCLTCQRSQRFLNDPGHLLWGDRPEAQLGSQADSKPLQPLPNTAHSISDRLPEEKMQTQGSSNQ

[3] = molecular target: T3, C18orf21–GFP (human) (UniProt Q32NC0)
T3 sequence: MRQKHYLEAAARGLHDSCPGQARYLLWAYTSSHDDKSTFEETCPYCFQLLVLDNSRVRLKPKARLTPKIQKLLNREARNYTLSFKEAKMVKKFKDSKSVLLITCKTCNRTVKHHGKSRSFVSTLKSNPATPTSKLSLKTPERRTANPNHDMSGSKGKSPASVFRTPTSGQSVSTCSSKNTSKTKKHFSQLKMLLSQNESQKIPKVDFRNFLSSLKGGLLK

[4] = molecular target: T4, RPP14–GFP (human) (UniProt O95059)
T4 sequence: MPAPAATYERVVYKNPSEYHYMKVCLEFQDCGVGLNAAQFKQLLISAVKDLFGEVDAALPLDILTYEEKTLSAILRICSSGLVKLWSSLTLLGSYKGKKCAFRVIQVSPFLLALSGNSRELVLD

Measured: binding

B1: RPP40 (protein, UniProt O75818 1-363)
chain: MATLRRLREAPRHLLVCEKSNFGNHKSRHRHLVQTHYYNYRVSFLIPECGILSEELKNLVMNTGPYYFVKNLPLHELITPEFISTFIKKGSCYALTYNTHIDEDNTVALLPNGKLILSLDKDTYEETGLQGHPSQFSGRKIMKFIVSIDLMELSLNLDSKKYERISWSFKEKKPLKFDFLLAWHKTGSEESTMMSYFSKYQIQEHQPKVALSTLRDLQCPVLQSSELEGTPEVSCRALELFDWLGAVFSNVDLNNEPNNFISTYCCPEPSTVVAKAYLCTITGFILPEKICLLLEHLCHYFDEPKLAPWVTLSVQGFADSPVSWEKNEHGFRKGGEHLYNFVIFNNQDYWLQMAVGANDHCPP
binds: all assays above
